PubChem BioAssay AID1671190 (National Center for Advancing Translational Sciences (NCATS), 2021)
“And” between values parts separate entries of the source, which are not always exact repeats. Identical values can stand only once. Screen size: about 580,000 compounds; about 6,100 (1.1%) were called active. Inconclusive results, whose numbers are uncertain, are shown with a selection of clear calls. Calls come from the whole dose curve; as a rule, active = well fitted inhibition curve with a large enough effect; inconclusive = small, poorly fitted or top-dose-only effect, or another doubt; inactive = no such curve, though single readings can be large or run the other way. Potencies beside an inconclusive call are fits to weak or partial responses and may not hold up.

Sequences of proteins named here, by UniProt entry; tags and fusion partners are left off. A change or cut given only in a name is not applied to a line headed by its entry.
UniProt P18054: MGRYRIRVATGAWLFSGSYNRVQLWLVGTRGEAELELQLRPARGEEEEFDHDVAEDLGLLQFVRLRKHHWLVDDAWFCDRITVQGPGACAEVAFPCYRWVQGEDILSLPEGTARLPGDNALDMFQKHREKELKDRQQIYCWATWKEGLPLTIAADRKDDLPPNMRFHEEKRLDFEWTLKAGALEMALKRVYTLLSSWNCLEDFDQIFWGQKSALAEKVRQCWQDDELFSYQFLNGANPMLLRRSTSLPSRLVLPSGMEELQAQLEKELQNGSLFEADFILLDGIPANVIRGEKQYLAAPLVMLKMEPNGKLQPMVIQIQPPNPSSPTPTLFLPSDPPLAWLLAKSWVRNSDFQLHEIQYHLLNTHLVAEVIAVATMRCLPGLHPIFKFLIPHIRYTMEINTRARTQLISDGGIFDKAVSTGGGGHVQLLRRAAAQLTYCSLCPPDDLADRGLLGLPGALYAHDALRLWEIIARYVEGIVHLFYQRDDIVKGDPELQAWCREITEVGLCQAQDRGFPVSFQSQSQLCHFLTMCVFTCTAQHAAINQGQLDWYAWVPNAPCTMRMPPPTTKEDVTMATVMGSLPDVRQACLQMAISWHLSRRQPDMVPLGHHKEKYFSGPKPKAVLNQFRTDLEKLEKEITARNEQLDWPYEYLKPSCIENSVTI

biological target: Polyunsaturated fatty acid lipoxygenase ALOX12 (Homo sapiens) (UniProt P18054); test: Primary qHTS assay for inhibitors of human arachidonate 12S-lipoxygenase (ALOX12): Round 2; settings: purified 12hLO, xylenol orange hydroperoxide absorbance; series mostly up to 108 µM
Method in brief: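 Purified human 12hLO (150 nM final) in 25 mM Hepes, 0.01% Triton X-100, pH 7.0 was preincubated 15 min at room temperature with compound. Then 40 uM arachidonic acid was added, 30 min. Hydroperoxide was read by Fe-XO absorbance ratio 573/405 nm.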
Potency is the fitted concentration of half-maximal effect.

Compound | Potency
Cc1ccc(NC(=O)CCCn2c3ccccc3c(=O)c3cc(C)ccc32)c(Br)c1 | inconclusive: 141 µM [inhibitor, single point]
CC1CCN(S(=O)(=O)c2ccc3c(c2)N(CC(=O)NCCc2ccc(Cl)cc2)C(=O)CO3)CC1 | inactive
C=C(C)Cn1c(N2CCC(C(N)=O)CC2)nc2c1c(=O)n(C)c(=O)n2C | inactive
O=C(c1ccc(C(F)(F)F)cc1)N1CCn2c(nn(-c3ccc([N+](=O)[O-])cc3)c2=O)C1 | inconclusive: 70.8 µM [inhibitor, single point]
CC1(C)CC(N2CCCC2)=CC(=[N+]2CCCCC2)C1 | active: 39.8 µM
Cc1ccc(/C=N/n2nnnc2N)cc1 | inconclusive: 141 µM [inhibitor, single point]
Cc1ccc(NC(=O)N2CCC3(CC2)CC(Cc2nc(-c4ccccc4)no2)CCO3)cc1C (centres undefined) | inactive
Cc1ccc(NS(=O)(=O)c2cc(-c3n[nH]c(=O)c4ccccc34)ccc2C)cc1 | inconclusive: 50.1 µM [inhibitor, partial curve, poor fit] and inconclusive: 39.8 µM [inhibitor, partial curve, poor fit]
CCc1ccc(Nc2n[n+](C)c(-c3ccncc3)s2)cc1 | inconclusive: 39.8 µM [inhibitor, partial curve, poor fit]
COc1cc(C(=O)NC(C)c2cccc3ccccc23)cc(OC)c1OC (centres undefined) | inconclusive: 141 µM [inhibitor, single point]
CC(C)N1CC[C@H](c2nnc(-c3ccccc3F)o2)C1 | inactive
COC(=O)CCCn1cc(CN2CC(N3CCN(Cc4ccccc4F)CC3)CS2(=O)=O)nn1 (centres undefined) | inconclusive: 31.6 µM [inhibitor, partial curve]
COC1(OC)C=CC(=O)C=C1NC(=O)c1ccccc1OC(C)=O | inactive
O=C(c1cc2ccccc2o1)N1CCOCC1 | inactive
O=C(CSc1ncc(S(=O)(=O)c2ccc(Cl)cc2)c(=O)[nH]1)Nc1ccc2c(c1)OCCO2 | inconclusive: 44.7 µM [inhibitor, partial curve, poor fit]
Cc1noc(NS(=O)(=O)c2ccc(NC(=O)CS(=O)(=O)c3ccccc3)cc2)c1C | inconclusive: 39.8 µM [inhibitor, partial curve, poor fit]
COc1ccccc1N(C(=O)c1snc(C(N)=O)c1N)C(C(=O)NCc1ccccc1)c1ccc(C)o1 (centres undefined) | inactive
Cc1cc2cc(CN3C(=O)c4ccccc4C3=O)ccc2[nH]1 | inconclusive: 50.1 µM [inhibitor, partial curve, poor fit]
CCc1noc(C)c1C(=O)N(C)CC(=O)Nc1ccc(Cl)c(Cl)c1 | inactive
O=C(Nc1ccccc1)c1ccc[n+](Cc2ccc([N+](=O)[O-])cc2)c1 | inactive
Cc1ccc(-n2ncc3c(Nc4ccccc4)ncnc32)cc1 | inactive
O=C(/C=C/c1cccs1)NC(=S)NNC(=O)c1ccccc1 | inconclusive: 17.8 µM [inhibitor, full curve]

Compound | Potency
CCCCCC(=O)Nc1ccc2oc(-c3cncc(Br)c3)nc2c1 | inconclusive: 35.5 µM [inhibitor, full curve, poor fit]
COC(=O)c1c(-c2ccc(N(C)C)cc2)oc2c1C(OC)CCC2 (centres undefined) | inconclusive: 35.5 µM [inhibitor, partial curve, poor fit]
C/C(=N\NC(=O)c1cccc(N/N=C(\C)c2cc(O)ccc2O)c1)c1cc(O)ccc1O | inactive
O=C(O)CCNS(=O)(=O)c1ccc(Br)cc1 | inactive
O=C1NCc2ccccc2CC12CCN(Cc1ccc(Br)cc1)C2 (centres undefined) | active: 28.2 µM
Nc1c(C(=O)NCc2ccc3c(c2)OCO3)c2nc3ccccc3nc2n1CCCN1CCOCC1 | inactive
COc1ccc(CCNc2ncnc3c2CN(c2ccccc2C)C(=O)CN3C)cc1 | inactive
c1ccc2c(OCCCCN3CCCC3)cccc2c1 | inactive
CCCCNC(=O)c1cccc(NC(=O)Nc2ccccc2)c1 | inactive
CCC1(C)CC2(CCCN(CCC(O)(c3ccccc3)c3ccccc3)C2)CCO1 (centres undefined) | inconclusive: 112 µM [inhibitor, single point]
C=C(C)CSc1nc(N)c(C#N)c(-c2ccc(C)cc2)c1C#N | inconclusive: 25.1 µM [inhibitor, partial curve, poor fit]
COc1ccc(-c2nc3ccc(NS(=O)(=O)c4ccccc4)cc3o2)cc1 | inconclusive: 56.2 µM [inhibitor, partial curve, poor fit]
Cc1ccc(C2CC(C(F)F)n3ncc(C(=O)Nc4cnn(Cc5ccccc5C)c4)c3N2)cc1 (centres undefined) | inconclusive: 35.5 µM [inhibitor, partial curve, poor fit]
COc1ccc(C2c3c(oc4ccccc4c3=O)C(=O)N2Cc2ccncc2)cc1OC (centres undefined) | inactive
C#CCN(C[C@@H]1[C@@H](OC(=O)NCc2ccco2)[C@@H](OC(=O)NCc2ccco2)Cn2c(=O)n(CCCCCC)c(=O)n21)S(=O)(=O)c1ccc(C)cc1 | inconclusive: 63.1 µM [inhibitor, partial curve, poor fit]
COc1ccccc1NS(=O)(=O)c1ccc2oc(SCCOc3ccc(F)cc3)nc2c1 | inactive
CCNc1ncc2nc(CCc3ccccc3)c(=O)n(Cc3cccc(OC)c3)c2n1 | inconclusive: 4.47 µM [inhibitor, full curve, poor fit]
CCOc1ccc(-n2c(SCC(=O)NCc3ccco3)nc3c([nH]c4ccccc43)c2=O)cc1 | inconclusive: 63.1 µM [inhibitor, partial curve, poor fit]
Cc1ccc(S(=O)(=O)Nc2ccc(F)c(F)c2O)cc1 | inconclusive: 39.8 µM [inhibitor, partial curve, poor fit]
CCc1ccc2c(CN3C(=O)C(=O)N(CC(C)C)C3=O)cc(=O)oc2c1 | inactive
C/C=C/c1ccc(OCCOc2cc(C=O)ccc2OC)c(OC)c1 | inconclusive: 28.2 µM [inhibitor, partial curve, poor fit]
COc1ccc2c(C)c(CCC(=O)NCc3ccc(S(=O)(=O)N(C)C)cc3)c(=O)oc2c1 | inactive
